Values from PubChem BioAssay AID1259297 (Sanger Institute, 2017).

- Assay: 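siRNA screen across the kinome seeking drug partners in cells of colorectal cancer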 (primary screen)
- Cells: human RCM1 colorectal cancer cell line
- Reagents: siRNA pool against human genes
- Challenge: separate arms: DMSO vehicle, or one anchor drug at a mild dose: BYL719 1 µM, cetuximab 5 µg/ml, trametinib 10 nM
- Detection: 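Replicate-mean well viability as a share of non-targeting pool control, a robust z-score without drug, and synergy scores for BYL719, cetuximab and trametinib arms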
- Direction: viability z-score, knock-down alone: higher = more viable cells than non-targeting controls; viability, knock-down alone (DMSO): higher = more viable cells
- Hit rule: 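Essential when the viability robust z-score for knock-down alone is below -3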
- Calls: active = essential when knocked down alone; inactive = no clear loss of viability alone
The deposit covers 794 reagents; below is a part drawn at random. 13 of all reagents (1.6%) count as active. 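Calls reflect knock-down without drug only; drug synergy is judged separately, with scores above 0.15 counted as synergy.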 Viability is capped at 1. Further read-outs or replicates are left out here. The record does not give: the amount of reagent, the time to read-out.

{"Target gene":"PAPSS2 (GeneID 9060)","viability z-score, knock-down alone":0.885,"viability, knock-down alone (DMSO) (fraction of control)":0.999,"call":"inactive"}
{"Target gene":"GUK1 (GeneID 2987)","viability z-score, knock-down alone":0.33,"viability, knock-down alone (DMSO) (fraction of control)":0.947,"call":"inactive"}
{"Target gene":"RPS6KB1 (GeneID 6198)","viability z-score, knock-down alone":0.107,"viability, knock-down alone (DMSO) (fraction of control)":0.926,"call":"inactive"}
{"Target gene":"GRK3 (GeneID 157)","viability z-score, knock-down alone":0.9,"viability, knock-down alone (DMSO) (fraction of control)":1,"call":"inactive"}
{"Target gene":"INSR (GeneID 3643)","viability z-score, knock-down alone":0.9,"viability, knock-down alone (DMSO) (fraction of control)":1,"call":"inactive"}
{"Target gene":"ACO1 (GeneID 48)","viability z-score, knock-down alone":0.9,"viability, knock-down alone (DMSO) (fraction of control)":1,"call":"inactive"}
{"Target gene":"DNMT3A (GeneID 1788)","viability z-score, knock-down alone":-1.5,"viability, knock-down alone (DMSO) (fraction of control)":0.778,"call":"inactive"}
{"Target gene":"VRK2 (GeneID 7444)","viability z-score, knock-down alone":0.337,"viability, knock-down alone (DMSO) (fraction of control)":0.948,"call":"inactive"}
{"Target gene":"PSKH2 (GeneID 85481)","viability z-score, knock-down alone":-0.476,"viability, knock-down alone (DMSO) (fraction of control)":0.872,"call":"inactive"}
{"Target gene":"PDK1 (GeneID 5163)","viability z-score, knock-down alone":-0.346,"viability, knock-down alone (DMSO) (fraction of control)":0.884,"call":"inactive"}
{"Target gene":"DLG3 (GeneID 1741)","viability z-score, knock-down alone":0.308,"viability, knock-down alone (DMSO) (fraction of control)":0.945,"call":"inactive"}
{"Target gene":"DLG2 (GeneID 1740)","viability z-score, knock-down alone":0.9,"viability, knock-down alone (DMSO) (fraction of control)":1,"call":"inactive"}
